Data as given in PubChem BioAssay AID652272 (Drosophila RNAi Screening Center, 2013).
In all, the deposit lists about 21,000 reagents; below is an unselected part of those with a known target gene and a result. Of all reagents, 503 (2.4%) are marked active. 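Raw plate light values, not normalised; calls rest on replicate z-scores that were not deposited; hits include reporter decreases as well as increases.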 Unmarked entries are inactive. Reagents against one gene are numbered here. Names joined by + are all predicted targets of the reagent. No sequences are given here. Not stated in the record: the amount of reagent, the time to read-out.

- Assay: 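Genome-wide knock-down search for components of Hedgehog signalling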 (primary screen)
- Cell system: Drosophila clone 8 (Cl8) cells
- Reagents: long dsRNA against Drosophila genes
- Detection: 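Plate reader light from a firefly reporter under a ptc promoter fragment that responds to Hedgehog, with Renilla light as transfection reference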
- Scale: firefly Hh reporter signal: higher = more ptc reporter light; Renilla reference signal: higher = more Renilla control light
- Rule for the call: 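Hit when the z-score averaged over two replicates is under -2 or over +3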
- Meaning of the calls: active = hit: reporter lowered or raised; inactive = not a hit

gene,dsRNA no.,"firefly Hh reporter signal, replicate 1","firefly Hh reporter signal, replicate 2","Renilla reference signal, replicate 1","Renilla reference signal, replicate 2"
CG43326 + CG43325,1,70265,49736,1955,4407
CG2641,1,54070,98501,2611,3020
CG10560,1,5.65e5,99948,37284,2794
FeCH (Ferrochelatase),1,1.06e5,66880,2617,2433
CG6236,1,90685,80521,3581,3395
ND-B16.6 (NADH dehydrogenase (ubiquinone) B16.6 subunit),1,95229,4.18e5,3136,12997
peo (pendolino),1,84130,56032,3920,2395
CG13842,1,5.54e5,83859,24522,2074
Obp8a (Odorant-binding protein 8a),1,83461,1.37e5,2195,4900
CG16739,1,73926,54122,1659,1680
CG9962,1,1.14e5,58842,2515,1367
CG16853,1,75482,41649,2105,3824
Cyp308a1 (Cytochrome P450 308a1),1,77320,1.75e5,1312,7194
CG18302,1,76771,57984,2248,5572
CG14507,1,82200,1.07e5,2491,2755
Marc (Mitochondrial amidoxime reducing component),1,1.00e5,43952,1739,2487
Tmtc1 (Transmembrane O-mannosyltransferase targeting cadherins 1),1,6.34e5,2.16e5,35204,8579
Tmtc1 (Transmembrane O-mannosyltransferase targeting cadherins 1),2,6.19e5,1.48e5,32003,6203
Tmtc1 (Transmembrane O-mannosyltransferase targeting cadherins 1),3,1.57e5,1.21e5,3556,3034
Tmtc1 (Transmembrane O-mannosyltransferase targeting cadherins 1),4,1.19e5,99184,2681,2506
kl-3 (retired record),1,5.22e5,1.93e5,29863,4112
kl-3 (retired record),2,61241,1.99e5,1015,7917
kl-3 (retired record),3,5.42e5,2.18e5,33043,4661

Laid out differently: 3 of the entries above.
{"gene": "Obp8a (Odorant-binding protein 8a)", "dsRNA no.": 1, "firefly Hh reporter signal, replicate 1": 83461, "firefly Hh reporter signal, replicate 2": 1.37e5, "Renilla reference signal, replicate 1": 2195, "Renilla reference signal, replicate 2": 4900}
{"gene": "CG16739", "dsRNA no.": 1, "firefly Hh reporter signal, replicate 1": 73926, "firefly Hh reporter signal, replicate 2": 54122, "Renilla reference signal, replicate 1": 1659, "Renilla reference signal, replicate 2": 1680}
{"gene": "CG9962", "dsRNA no.": 1, "firefly Hh reporter signal, replicate 1": 1.14e5, "firefly Hh reporter signal, replicate 2": 58842, "Renilla reference signal, replicate 1": 2515, "Renilla reference signal, replicate 2": 1367}
